Source: publication PMC5467174
Results are given in words; binding and its absence hold for the method and conditions named. Binding seen in cells or lysates may run through a third protein. A yes stands for co-enrichment or nearness to the bait. Other partners may have been found.

Key:
[1] = target: Ago2/TNRC6C split-BioID pair (CBirA*-Ago2 with NBirA*-TNRC6C); assay: proximity labelling; split-BioID in transiently transfected HeLa 11ht cells (CBirA*-Ago2 with NBirA*-Dicer, -TNRC6C or -GFP); streptavidin capture of the biotinylated proteins, western blot of the eluates
[2] = target: Ago2/TNRC6C split-BioID pair (CBirA*-Ago2 with NBirA*-TNRC6C); assay: proximity labelling; split-BioID in transiently transfected HeLa 11ht cells (CBirA*-Ago2 with NBirA*-Dicer or NBirA*-TNRC6C); 50 μM biotin, 200 ng/ml doxycycline, 24 h; capture on streptavidin beads, MS with label-free quantification, triplicates; enrichment over six unrelated BioID runs and the GFP control

B1: GIGYF2 (protein, UniProt Q6Y7W6 1-1299)
chain: MAAETQTLNFGPEWLRALSSGGSITSPPLSPALPKYKLADYRYGREEMLALFLKDNKIPSDLLDKEFLPILQEEPLPPLALVPFTEEEQRNFSMSVNSAAVLRLTGRGGGGTVVGAPRGRSSSRGRGRGRGECGFYQRSFDEVEGVFGRGGGREMHRSQSWEERGDRRFEKPGRKDVGRPNFEEGGPTSVGRKHEFIRSESENWRIFREEQNGEDEDGGWRLAGSRRDGERWRPHSPDGPRSAGWREHMERRRRFEFDFRDRDDERGYRRVRSGSGSIDDDRDSLPEWCLEDAEEEMGTFDSSGAFLSLKKVQKEPIPEEQEMDFRPVDEGEECSDSEGSHNEEAKEPDKTNKKEGEKTDRVGVEASEETPQTSSSSARPGTPSDHQSQEASQFERKDEPKTEQTEKAEEETRMENSLPAKVPSRGDEMVADVQQPLSQIPSDTASPLLILPPPVPNPSPTLRPVETPVVGAPGMGSVSTEPDDEEGLKHLEQQAEKMVAYLQDSALDDERLASKLQEHRAKGVSIPLMHEAMQKWYYKDPQGEIQGPFNNQEMAEWFQAGYFTMSLLVKRACDESFQPLGDIMKMWGRVPFSPGPAPPPHMGELDQERLTRQQELTALYQMQHLQYQQFLIQQQYAQVLAQQQKAALSSQQQQQLALLLQQFQTLKMRISDQNIIPSVTRSVSVPDTGSIWELQPTASQPTVWEGGSVWDLPLDTTTPGPALEQLQQLEKAKAAKLEQERREAEMRAKREEEERKRQEELRRQQEEILRRQQEEERKRREEEELARRKQEEALRRQREQEIALRRQREEEERQQQEEALRRLEERRREEEERRKQEELLRKQEEEAAKWAREEEEAQRRLEENRLRMEEEAARLRHEEEERKRKELEVQRQKELMRQRQQQQEALRRLQQQQQQQQLAQMKLPSSSTWGQQSNTTACQSQATLSLAEIQKLEEERERQLREEQRRQQRELMKALQQQQQQQQQKLSGWGNVSKPSGTTKSLLEIQQEEARQMQKQQQQQQQHQQPNRARNNTHSNLHTSIGNSVWGSINTGPPNQWASDLVSSIWSNADTKNSNMGFWDDAVKEVGPRNSTNKNKNNASLSKSVGVSNRQNKKVEEEEKLLKLFQGVNKAQDGFTQWCEQMLHALNTANNLDVPTFVSFLKEVESPYEVHDYIRAYLGDTSEAKEFAKQFLERRAKQKANQQRQQQQLPQQQQQQPPQQPPQQPQQQDSVWGMNHSTLHSVFQTNQSNNQQSNFEAVQSGKKKKKQKMVRADPSLLGFSVNASSERLNMGEIETLDDY
- binding [1]: binds
- binding [2]: binds

B2: RC3H2 (protein, UniProt Q9HBD1 1-1191)
chain: MPVQAAQWTEFLSCPICYNEFDENVHKPISLGCSHTVCKTCLNKLHRKACPFDQTAINTDIDVLPVNFALLQLVGAQVPDHQSIKLSNLGENKHYEVAKKCVEDLALYLKPLSGGKGVASLNQSALSRPMQRKLVTLVNCQLVEEEGRVRAMRAARSLGERTVTELILQHQNPQQLSANLWAAVRARGCQFLGPAMQEEALKLVLLALEDGSALSRKVLVLFVVQRLEPRFPQASKTSIGHVVQLLYRASCFKVTKRDEDSSLMQLKEEFRSYEALRREHDAQIVHIAMEAGLRISPEQWSSLLYGDLAHKSHMQSIIDKLQSPESFAKSVQELTIVLQRTGDPANLNRLRPHLELLANIDPNPDAVSPTWEQLENAMVAVKTVVHGLVDFIQNYSRKGHETPQPQPNSKYKTSMCRDLRQQGGCPRGTNCTFAHSQEELEKYRLRNKKINATVRTFPLLNKVGVNNTVTTTAGNVISVIGSTETTGKIVPSTNGISNAENSVSQLISRSTDSTLRALETVKKVGKVGANGQNAAGPSADSVTENKIGSPPKTPVSNVAATSAGPSNVGTELNSVPQKSSPFLTRVPVYPPHSENIQYFQDPRTQIPFEVPQYPQTGYYPPPPTVPAGVAPCVPRFVRSNNVPESSLPPASMPYADHYSTFSPRDRMNSSPYQPPPPQPYGPVPPVPSGMYAPVYDSRRIWRPPMYQRDDIIRSNSLPPMDVMHSSVYQTSLRERYNSLDGYYSVACQPPSEPRTTVPLPREPCGHLKTSCEEQIRRKPDQWAQYHTQKAPLVSSTLPVATQSPTPPSPLFSVDFRADFSESVSGTKFEEDHLSHYSPWSCGTIGSCINAIDSEPKDVIANSNAVLMDLDSGDVKRRVHLFETQRRTKEEDPIIPFSDGPIISKWGAISRSSRTGYHTTDPVQATASQGSATKPISVSDYVPYVNAVDSRWSSYGNEATSSAHYVERDRFIVTDLSGHRKHSSTGDLLSLELQQAKSNSLLLQREANALAMQQKWNSLDEGRHLTLNLLSKEIELRNGELQSDYTEDATDTKPDRDIELELSALDTDEPDGQSEPIEEILDIQLGISSQNDQLLNGMAVENGHPVQQHQKEPPKQKKQSLGEDHVILEEQKTILPVTSCFSQPLPVSISNASCLPITTSVSAGNLILKTHVMSEDKNDFLKPVANGKMVNS
- binding [2]: binds

B3: ATXN2L (protein, UniProt Q8WWM7 1-1075)
chain: MLKPQPLQQPSQPQQPPPTQQAVARRPPGGTSPPNGGLPGPLATSAAPPGPPAAASPCLGPVAAAGSGLRRGAEGILAPQPPPPQQHQERPGAAAIGSARGQSTGKGPPQSPVFEGVYNNSRMLHFLTAVVGSTCDVKVKNGTTYEGIFKTLSSKFELAVDAVHRKASEPAGGPRREDIVDTMVFKPSDVMLVHFRNVDFNYATKDKFTDSAIAMNSKVNGEHKEKVLQRWEGGDSNSDDYDLESDMSNGWDPNEMFKFNEENYGVKTTYDSSLSSYTVPLEKDNSEEFRQRELRAAQLAREIESSPQYRLRIAMENDDGRTEEEKHSAVQRQGSGRESPSLASREGKYIPLPQRVREGPRGGVRCSSSRGGRPGLSSLPPRGPHHLDNSSPGPGSEARGINGGPSRMSPKAQRPLRGAKTLSSPSNRPSGETSVPPPPAVGRMYPPRSPKSAAPAPISASCPEPPIGSAVPTSSASIPVTSSVSDPGVGSISPASPKISLAPTDVKELSTKEPGRTLEPQELARIAGKVPGLQNEQKRFQLEELRKFGAQFKLQPSSSPENSLDPFPPRILKEEPKGKEKEVDGLLTSEPMGSPVSSKTESVSDKEDKPPLAPSGGTEGPEQPPPPCPSQTGSPPVGLIKGEDKDEGPVAEQVKKSTLNPNAKEFNPTKPLLSVNKSTSTPTSPGPRTHSTPSIPVLTAGQSGLYSPQYISYIPQIHMGPAVQAPQMYPYPVSNSVPGQQGKYRGAKGSLPPQRSDQHQPASAPPMMQAAAAAGPPLVAATPYSSYIPYNPQQFPGQPAMMQPMAHYPSQPVFAPMLQSNPRMLTSGSHPQAIVSSSTPQYPSAEQPTPQALYATVHQSYPHHATQLHAHQPQPATTPTGSQPQSQHAAPSPVQHQAGQAPHLGSGQPQQNLYHPGALTGTPPSLPPGPSAQSPQSSFPQPAAVYAIHHQQLPHGFTNMAHVTQAHVQTGITAAPPPHPGAPHPPQVMLLHPPQSHGGPPQGAVPQSGVPALSASTPSPYPYIGHPQGEQPGQAPGFPGGADDRIREFSLAGGIWHGRAEGLQVGQDARVLGGE
- binding [2]: binds
